# From PubChem BioAssay AID720533 (National Center for Advancing Translational Sciences (NCATS), 2013)
# Several values for one entry are separate records, joined by “and”; a condition that tells them apart may be missing. Identical values can stand only once. The whole screen tested about 18,000 compounds, of which about 750 (4.2%) were called active. The inconclusive results got no clear call from the source; some entries with a clear call stand among them for comparison. Calls follow the shape of the full dose curve; tested in HEK293 cells. Where the call is inconclusive, the potency comes from a doubtful curve fit.
# Assay: qHTS for Inhibitors of binding or entry into cells for Lassa Virus
# Details: Lassa virus pseudotyped entry inhibition, cell-based qHTS; activity change, negative = inhibition: at 49.2 µM (top of the series) unless noted
# % is scaled to controls: 0 for no effect and ±100 for the full control effect; potency is read from the fitted curve at half-maximal effect.
SMILES,"activity change, negative = inhibition",Potency
C/C=C(\C)C(=O)C[Si](C)(C)c1ccccc1,inactive: -7.95%,
O=C(/C=C/c1ccc(O)c(O)c1)O[C@@H]1C[C@@](OC(=O)/C=C/c2ccc(O)c(O)c2)(C(=O)O)C[C@@H](O)[C@@H]1O,,"inconclusive: 35.5 µM [inhibitor, single point]"
CC1=C(C(=O)O)N2C(=O)C(NC(=O)C(N)c3ccc(O)cc3)C2SC1 (stereo not drawn),,"inconclusive: 0.0891 µM [inhibitor, full curve, poor fit]"
COP(=S)(OC)Oc1ccc([N+](=O)[O-])cc1,,"inconclusive: 35.5 µM [inhibitor, single point]"
C[C@H]1OC(=O)CC[C@@H]2[C@]1(C)CCC1[C@@]2(C)CC[C@@]2(C)C3CC(C)(C)CC[C@]3(CO)CC[C@]12C (stereo partly drawn),inactive: -4.42%,
COC([CH2][Hg])CNC(=O)c1ccccc1OCC(=O)O (stereo not drawn),,"inconclusive: 28.2 µM [inhibitor, partial curve, poor fit]"
CN(C)CCOC(c1ccccc1)c1ccccc1,,"inconclusive: 35.5 µM [inhibitor, single point] and inconclusive: 25.1 µM [inhibitor, partial curve, poor fit]"
O=C(CCCCCCCCC#CI)Oc1ccccc1,,"inconclusive: 5.01 µM [inhibitor, full curve, poor fit]"
CCCC[C@]12Cc3cc(OC)c(OC)cc3[C@H](O1)C1=C(O2)C(=O)c2ccccc2C1=O,inactive: 5.49% [at 8.59 µM],
COc1cc(=O)n2c(c1C(=O)N(C)Cc1nonc1C)CCN(Cc1ccccc1Cl)CC2,,"inconclusive: 11.2 µM [inhibitor, partial curve]"
C=C1c2cccc(OC)c2O[C@H](C(=O)OCC)[C@@H]1CCC(C)C,inactive: 4%,
COCC1CCCN(c2nc(CN3CCN(C(=O)c4ccco4)CC3)nc3ccccc23)C1 (stereo not drawn),inactive: -13.6%,
CC(=O)N1CCN(c2ccc(OC[C@H]3CO[C@](Cn4ccnc4)(c4ccc(Cl)cc4Cl)O3)cc2)CC1,,"inconclusive: 20 µM [inhibitor, single point]"
CC(O)[C@H]1CC[C@H]2[C@@H]3CC[C@@H]4C[C@@H](O)CC[C@]4(C)[C@H]3CC[C@]12C (stereo partly drawn),inactive: -3.26%,
OC(CN1CCC(Cc2ccc(F)cc2)CC1)c1ccc(Cl)cc1 (stereo not drawn),,"inconclusive: 31.6 µM [inhibitor, partial curve]"
COc1cc(=O)n2c(c1C(=O)N(C)Cc1nonc1C)CCN(Cc1ccccc1F)CC2,,"inconclusive: 15.8 µM [inhibitor, partial curve]"
CCCCCOc1c(OC)ccc2cc(C(=O)NCc3ccc4c(c3)OCO4)c(=O)[nH]c12,,"inconclusive: 6.31 µM [inhibitor, single point]"
Cc1ccc([C@H]2C[C@@H](n3cc(C4CC4)nn3)[C@H](O)CN2CC2CCCCC2)cc1,,"inconclusive: 19.9 µM [inhibitor, partial curve, poor fit]"
CC[C@@]1(O)C(=O)OCc2c1cc1n(c2=O)Cc2cc3ccccc3nc2-1,,"inconclusive: 1 µM [inhibitor, full curve] and inconclusive: 3.55 µM [inhibitor, full curve, poor fit] and inconclusive: 4.47 µM [inhibitor, full curve, poor fit]"
COc1ccc(C(=C2C(=O)Nc3ccccc32)c2ccc(OC)cc2)cc1,,"inconclusive: 20 µM [inhibitor, single point]"
CC(C)CNC(=O)c1cn(C2CCN(Cc3nc4ccccc4s3)CC2)nn1,inactive: -4.76%,
CCN(CC)CCOc1ccc(C(O)(Cc2ccc(Cl)cc2)c2ccc(C)cc2)cc1 (stereo not drawn),,active: 25.1 µM
COc1ccc2cc1Oc1ccc(cc1)CC1c3cc(c(OC)cc3CCN1C)Oc1c(OC)c(OC)cc3c1C(C2)N(C)CC3 (stereo not drawn),,active: 11.2 µM
NCCCCCCNS(=O)(=O)c1cccc2c(Cl)cccc12,,"inconclusive: 31.6 µM [inhibitor, partial curve] and inconclusive: 25.1 µM [inhibitor, partial curve] and inconclusive: 12.6 µM [inhibitor, single point]"
COc1cc2c(cc1OC)-c1cc3cc(OC)c(OC)cc3c(=O)n1CC2,,"inconclusive: 11.2 µM [inhibitor, single point]"
Cc1ccc([C@H]2C[C@H](O)[C@@H](n3cc(C4CC4)nn3)CN2Cc2cccs2)cc1,,"inconclusive: 19.9 µM [inhibitor, partial curve, poor fit]"
Nc1ccn([C@@H]2O[C@H](CO)[C@@H](O)C2(F)F)c(=O)n1,,"inconclusive: 3.55 µM [inhibitor, full curve, poor fit]"

SMILES,"activity change, negative = inhibition",Potency
O=S1(=O)CCSC[C@@H](CN2CCCC2)N1,inactive: 5.54%,
COc1cc(=O)n2c(c1C(=O)N(C)Cc1nonc1C)CCN(C(=O)c1ccc(C)cc1C)CC2,,"inconclusive: 10 µM [inhibitor, single point]"
CC(C)=CCN1C(=O)[C@]2(O[C@H](COc3ccccc3)CC3=CCCC32)c2c(Br)cccc21 (stereo partly drawn),inactive: -9.36% [at 8.59 µM],
O=C(/C=C/c1ccccc1)NC(NC(=S)Nc1cccc2cccnc12)C(Cl)(Cl)Cl (stereo not drawn),,"inconclusive: 35.5 µM [inhibitor, single point]"
CC(=O)O[C@@]12CO[C@@H]1C[C@H](O)[C@@]1(C)C(=O)[C@H](O)C3=C(C)[C@@H](OC(=O)[C@H](O)[C@@H](NC(=O)OC(C)(C)C)c4ccccc4)C[C@@](O)([C@@H](OC(=O)c4ccccc4)[C@H]21)C3(C)C,,"inconclusive: 35.5 µM [inhibitor, partial curve, poor fit] and inconclusive: 3.16 µM [inhibitor, full curve, poor fit]"
CN1CCN(Cc2ccc(-c3cc4ncnc(Nc5ccc(OCc6cccc(F)c6)c(Cl)c5)c4s3)o2)CC1,,"inconclusive: 19.9 µM [inhibitor, partial curve, poor fit]"
CCCCCCCCCCCCCCCCCC(=O)[O][Al],inactive: 0.394%,
COc1ccc(CN2CCOc3c(cc(-c4ncc(C(F)(F)F)cc4Cl)cc3OCC3CCCO3)C2)c(O)c1 (stereo not drawn),,"inconclusive: 17.8 µM [inhibitor, single point]"
CC(=O)NCC(=O)NCC1Cc2cc(C)cc(-c3ccccn3)c2O1 (stereo not drawn),inactive: 1%,
C=C1C(=C/C=C2\CCC[C@]3(C)[C@@H]([C@H](C)/C=C/[C@@H](O)C4CC4)CC[C@@H]23)C[C@@H](O)C[C@@H]1O,,active: 14.1 µM
O=C(c1ccc(Nc2nccc(-c3cc4ccccc4s3)n2)cc1)N1CCC(N2CCCC2)CC1,,"inconclusive: 35.5 µM [inhibitor, single point]"
CC(C)[C@@H](OCc1ccccc1)[C@H](C)C=NOC[C@@H](C)[C@H](OCc1ccccc1)C(C)C,inactive: 8.86% [at 8.59 µM],
Clc1ccc(CSC(Cn2ccnc2)c2ccc(Cl)cc2Cl)cc1 (stereo not drawn),,"inconclusive: 14.1 µM [inhibitor, single point] and inconclusive: 35.5 µM [inhibitor, single point]"
COC1=C(C(=O)c2ccccc2)C(=O)C2(CC=C(C)C)C[C@H](C(=O)OCC(F)(F)F)C(C)(C)[C@@]1(CC=C(C)C)C2=O (tested in a mixture with another compound),,"inconclusive: 0.1 µM [inhibitor, full curve]"
COc1cc(Nc2nccc(-c3cnn4ncccc34)n2)cc(OC)c1,,"inconclusive: 2.5 µM [inhibitor, partial curve, poor fit]"
Cc1cccc(C(=O)N2CCC(=O)N([C@H](COCc3ccc(Cl)cc3)Cc3ccccc3)CC2)c1,,"inconclusive: 7.94 µM [inhibitor, partial curve]"
CCCCCCC(=O)O[C@H]1CC[C@H]2[C@@H]3CC[C@H]4CC(=O)C=C(C)[C@]4(C)[C@H]3CC[C@]12C,,"inconclusive: 31.6 µM [inhibitor, partial curve, poor fit]"
O=C(c1n[nH]c2c1CCCC2)N1CCOc2ccc(C(O)C3CCCCC3)cc2C1 (stereo not drawn),,active: 8.91 µM
O=c1[nH]c(=O)n(C2CC(O)C(CO)O2)cc1F (stereo not drawn),,"inconclusive: 0.447 µM [inhibitor, full curve]"
O=C(/C=C/c1ccccc1)c1ccccc1O,inactive: 4.23%,
Cc1ccc(CC2(O)CCN(CCOc3ccc(O)cc3)CC2)cc1,,"inconclusive: 17.8 µM [inhibitor, single point]"
CCCCC(CC)COC(=O)c1ccc(N(C)C)cc1 (stereo not drawn),inactive: -20.8%,
CCCCCCCCCC[n+]1cccc([C@@H]2CCCN2C)c1,,"inconclusive: 6.31 µM [inhibitor, partial curve]"
CO[C@H]1C=CO[C@@]2(C)Oc3c(C)c(O)c4c(O)c(c(/C=N/N5CCN(C6CCCC6)CC5)c(O)c4c3C2=O)NC(=O)/C(C)=C\C=C[C@H](C)[C@H](O)[C@@H](C)[C@@H](O)[C@@H](C)[C@H](OC(C)=O)[C@@H]1C,,"inconclusive: 17.8 µM [inhibitor, partial curve, poor fit]"
COC(=O)C1=C(C)NC(C)=C(C(=O)NCCCN2CCC(c3ccccc3)(c3ccccc3)CC2)C1c1ccc([N+](=O)[O-])cc1 (stereo not drawn),,"inconclusive: 35.5 µM [inhibitor, single point]"
